Reference: US6815187
These are yes or no findings as the source states them, for the method shown. Some binding calls cover weakened binding; strength is not graded here.

Target: syndecan-4 cytoplasmic tail peptide with a phosphorylated Ser (S4c-P)
Experiment: self-association; size-exclusion chromatography (Sephadex G-50) of 300 µM peptide with 350 µM PIP2

- binding: binds
Binder: RMKKKDEGSYDLGKKPIYKKAPTNEFYA (phosphorylated Ser (the single Ser of the peptide, Ser183 of syndecan-4)) [syndecan-4 cytoplasmic tail peptide with a phosphorylated Ser (S4c-P)]
